In article PMC5749825:
Results are given in words; binding and its absence hold for the method and conditions named. In cells and extracts the contact can be indirect. A yes stands for co-enrichment or nearness to the bait. Other partners may have been found.

Sequences of proteins named here, by UniProt entry; tags and fusion partners are left off.
UniProt P51784: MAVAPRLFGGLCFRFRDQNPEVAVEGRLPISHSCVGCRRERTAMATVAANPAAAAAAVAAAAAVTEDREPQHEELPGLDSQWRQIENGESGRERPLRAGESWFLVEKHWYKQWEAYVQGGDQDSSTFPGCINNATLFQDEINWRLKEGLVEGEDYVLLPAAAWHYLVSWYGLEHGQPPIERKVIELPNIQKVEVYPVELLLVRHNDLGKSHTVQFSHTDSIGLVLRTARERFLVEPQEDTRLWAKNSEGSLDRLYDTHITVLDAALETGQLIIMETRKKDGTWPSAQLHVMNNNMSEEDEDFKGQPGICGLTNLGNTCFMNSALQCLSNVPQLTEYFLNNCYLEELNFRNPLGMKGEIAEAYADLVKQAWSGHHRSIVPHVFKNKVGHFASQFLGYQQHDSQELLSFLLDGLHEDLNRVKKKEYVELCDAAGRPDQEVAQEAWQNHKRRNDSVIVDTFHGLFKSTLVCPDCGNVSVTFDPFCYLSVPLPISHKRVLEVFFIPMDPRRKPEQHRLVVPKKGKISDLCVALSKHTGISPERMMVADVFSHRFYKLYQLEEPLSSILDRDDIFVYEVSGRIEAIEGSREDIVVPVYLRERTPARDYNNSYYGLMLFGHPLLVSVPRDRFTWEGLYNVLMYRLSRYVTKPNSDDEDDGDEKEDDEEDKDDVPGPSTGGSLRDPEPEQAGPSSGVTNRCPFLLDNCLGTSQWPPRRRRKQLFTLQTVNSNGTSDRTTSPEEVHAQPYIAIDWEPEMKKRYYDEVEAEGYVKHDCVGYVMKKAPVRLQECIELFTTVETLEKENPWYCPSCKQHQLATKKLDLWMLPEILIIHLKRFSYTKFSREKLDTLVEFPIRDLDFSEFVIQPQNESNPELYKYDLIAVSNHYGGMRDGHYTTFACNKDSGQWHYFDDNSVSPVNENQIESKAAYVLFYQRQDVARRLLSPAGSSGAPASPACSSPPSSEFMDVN
UniProt Q93009: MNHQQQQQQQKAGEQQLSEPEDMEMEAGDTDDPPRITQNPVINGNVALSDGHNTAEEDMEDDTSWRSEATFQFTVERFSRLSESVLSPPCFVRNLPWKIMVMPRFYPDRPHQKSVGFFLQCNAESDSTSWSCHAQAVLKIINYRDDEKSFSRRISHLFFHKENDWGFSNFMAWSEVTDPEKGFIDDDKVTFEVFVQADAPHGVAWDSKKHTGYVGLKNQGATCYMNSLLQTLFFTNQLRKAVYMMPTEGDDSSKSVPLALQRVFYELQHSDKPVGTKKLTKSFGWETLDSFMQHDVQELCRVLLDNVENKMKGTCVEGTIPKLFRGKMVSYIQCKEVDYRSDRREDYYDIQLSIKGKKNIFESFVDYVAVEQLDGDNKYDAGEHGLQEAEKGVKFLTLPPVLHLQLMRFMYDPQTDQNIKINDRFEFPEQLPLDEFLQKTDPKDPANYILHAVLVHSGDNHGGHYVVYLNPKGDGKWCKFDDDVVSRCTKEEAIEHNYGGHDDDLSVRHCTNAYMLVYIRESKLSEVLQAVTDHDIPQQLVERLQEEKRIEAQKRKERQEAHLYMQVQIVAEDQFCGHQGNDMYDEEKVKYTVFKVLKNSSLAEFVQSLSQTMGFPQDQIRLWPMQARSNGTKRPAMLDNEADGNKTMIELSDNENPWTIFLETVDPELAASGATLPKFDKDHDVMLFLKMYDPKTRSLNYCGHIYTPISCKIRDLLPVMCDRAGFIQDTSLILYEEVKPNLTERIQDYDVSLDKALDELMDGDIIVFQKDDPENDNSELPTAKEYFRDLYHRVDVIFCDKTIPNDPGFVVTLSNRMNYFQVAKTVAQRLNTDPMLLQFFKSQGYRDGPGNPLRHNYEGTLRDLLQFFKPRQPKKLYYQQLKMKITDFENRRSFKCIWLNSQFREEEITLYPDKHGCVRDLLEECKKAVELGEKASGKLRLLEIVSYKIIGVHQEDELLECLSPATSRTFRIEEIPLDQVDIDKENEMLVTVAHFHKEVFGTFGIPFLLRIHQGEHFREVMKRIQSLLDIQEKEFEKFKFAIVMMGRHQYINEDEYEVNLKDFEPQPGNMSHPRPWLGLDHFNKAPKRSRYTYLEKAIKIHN

B1: endogenous KCTD6 of U2OS cells (protein, UniProt Q8NC69 1-237)
chain: MDNGDWGYMMTDPVTLNVGGHLYTTSLTTLTRYPDSMLGAMFGGDFPTARDPQGNYFIDRDGPLFRYVLNFLRTSELTLPLDFKEFDLLRKEADFYQIEPLIQCLNDPKPLYPMDTFEEVVELSSTRKLSKYSNPVAVIITQLTITTKVHSLLEGISNYFTKWNKHMMDTRDCQVSFTFGPCDYHQEVSLRVHLMEYITKQGFTIRNTRVHHMSERANENTVEHNWTFCRLARKTDD
B2: endogenous RAE1 of U2OS cells (protein, UniProt P78406 1-368)
chain: MSLFGTTSGFGTSGTSMFGSATTDNHNPMKDIEVTSSPDDSIGCLSFSPPTLPGNFLIAGSWANDVRCWEVQDSGQTIPKAQQMHTGPVLDVCWSDDGSKVFTASCDKTAKMWDLSSNQAIQIAQHDAPVKTIHWIKAPNYSCVMTGSWDKTLKFWDTRSSNPMMVLQLPERCYCADVIYPMAVVATAERGLIVYQLENQPSEFRRIESPLKHQHRCVAIFKDKQNKPTGFALGSIEGRVAIHYINPPNPAKDNFTFKCHRSNGTNTSAPQDIYAVNGIAFHPVHGTLATVGSDGRFSFWDKDARTKLKTSEQLDQPISACCFNHNGNIFAYASSYDWSKGHEFYNPQKKNYIFLRNAAEELKPRNKK
B3: endogenous SPRYD3 (SPRY-domain containing protein 3) of U2OS cells (protein, UniProt Q8NCJ5 1-442)
chain: MRRTRRPRFVLMNKMDDLNLHYRFLNWRRRIREIREVRAFRYQERFKHILVDGDTLSYHGNSGEVGCYVASRPLTKDSNYFEVSIVDSGVRGTIAVGLVPQYYSLDHQPGWLPDSVAYHADDGKLYNGRAKGRQFGSKCNSGDRIGCGIEPVSFDVQTAQIFFTKNGKRVGSTIMPMSPDGLFPAVGMHSLGEEVRLHLNAELGREDDSVMMVDSYEDEWGRLHDVRVCGTLLEYLGKGKSIVDVGLAQARHPLSTRSHYFEVEIVDPGEKCYIALGLARKDYPKNRHPGWSRGSVAYHADDGKIFHGSGVGDPFGPRCYKGDIMGCGIMFPRDYILDSEGDSDDSCDTVILSPTARAVRNVRNVMYLHQEGEEEEEEEEEEEDGEEIEPEHEGRKVVVFFTRNGKIIGKKDAVVPSGGFFPTIGMLSCGEKVKVDLHPLSG

The molecules below were run against Flag-tagged USP11 (Ubiquitin Specific Protease 11), stably expressed in U2OS cells (UniProt P51784) (assay: affinity purification with mass spectrometry; large-scale Flag-IP from U2OS cells stably expressing Flag-USP11 (parental line as negative control); lysis in CSK buffer (10 mM Hepes pH 7.4, 10 mM KCl, 100 mM NaCl) with 0.5% NP40; anti-Flag agarose, 4°C, 4h; elution with Flag peptide; excised gel bands analysed by MS/MS).

binding	Molecule
binds	endogenous USP7 (Ubiquitin Specific Protease 7) of U2OS cells (from UniProt Q93009 1-1102) (enzyme)
binds	endogenous PAM (Protein associated with Myc) of U2OS cells (from UniProt O75592 1-4678)
binds	B1
binds	B2
binds	B3
